According to PubChem BioAssay AID1671190 (National Center for Advancing Translational Sciences (NCATS), 2021):
“And” between values parts separate entries of the source, which are not always exact repeats. Identical values can stand only once. Out of some 580,000 compounds screened, about 6,100 (1.1%) were called active. Inconclusive means that the source gave no clear call. Such entries were picked first, then a sample of the others. Calls follow the shape of the dose curve; as a rule, active = well fitted inhibition curve with a large enough effect; inconclusive = small, poorly fitted or top-dose-only effect, or another doubt; inactive = no such curve, though single readings can be large or run the other way. Potencies of inconclusive entries are doubtful fits and often do not repeat.

Amino acid sequences for entries named in this document (tags omitted). A change or cut given only in a name is not applied to a line headed by its entry.
UniProt P18054: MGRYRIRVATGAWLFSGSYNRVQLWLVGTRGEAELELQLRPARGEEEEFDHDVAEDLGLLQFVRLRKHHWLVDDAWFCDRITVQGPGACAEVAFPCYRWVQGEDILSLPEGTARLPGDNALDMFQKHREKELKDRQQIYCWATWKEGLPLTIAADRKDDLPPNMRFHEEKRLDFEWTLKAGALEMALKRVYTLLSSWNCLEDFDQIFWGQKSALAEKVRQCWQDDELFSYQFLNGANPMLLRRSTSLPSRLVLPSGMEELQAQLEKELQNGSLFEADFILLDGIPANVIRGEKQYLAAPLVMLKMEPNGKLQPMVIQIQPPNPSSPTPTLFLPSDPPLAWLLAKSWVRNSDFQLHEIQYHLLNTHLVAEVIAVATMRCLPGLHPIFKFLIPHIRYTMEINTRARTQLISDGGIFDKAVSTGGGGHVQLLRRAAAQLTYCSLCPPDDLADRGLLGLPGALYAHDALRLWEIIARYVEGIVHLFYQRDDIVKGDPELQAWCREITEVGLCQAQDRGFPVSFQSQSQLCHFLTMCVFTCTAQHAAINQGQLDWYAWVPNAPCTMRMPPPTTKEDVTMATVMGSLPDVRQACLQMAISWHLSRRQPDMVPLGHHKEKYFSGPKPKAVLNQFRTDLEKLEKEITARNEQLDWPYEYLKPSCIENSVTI

Target: Polyunsaturated fatty acid lipoxygenase ALOX12 (Homo sapiens) (UniProt P18054)
Assay: Primary qHTS assay for inhibitors of human arachidonate 12S-lipoxygenase (ALOX12): Round 2
Settings: purified 12hLO, xylenol orange hydroperoxide absorbance; series mostly up to 108 µM
Outline: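 Purified human 12hLO (150 nM final) in 25 mM Hepes, 0.01% Triton X-100, pH 7.0 was preincubated 15 min at room temperature with compound. Then 40 uM arachidonic acid was added, 30 min. Hydroperoxide was read by Fe-XO absorbance ratio 573/405 nm.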
Potency is read from the fitted curve at half-maximal effect.

Compound	Potency
Cc1ccc(CSc2oc(-c3ccco3)nc2S(=O)(=O)c2ccc(Br)cc2)cc1	inconclusive: 39.8 µM [inhibitor, single point]
O=C(CN1CCN(c2ccc(Cl)cc2)CC1)Nc1ccc(Cl)c(C(F)(F)F)c1	inconclusive: 100 µM [inhibitor, partial curve, poor fit]
Cc1ccc(NC2c3ncccc3C(=O)N2Cc2cccs2)cc1 (stereo not drawn)	inconclusive: 39.8 µM [inhibitor, partial curve, poor fit]
Fc1cc(Br)ccc1NC(=S)NCc1cccs1	active: 25.1 µM
O=C(O)c1cccc(NC2=C(N3CCOCC3)C(=O)c3ccccc3C2=O)c1	inactive
Cc1cccn2cc(-c3cccc(S(=O)(=O)N4CCCCC4)c3)nc12	inconclusive: 141 µM [inhibitor, single point]
COc1ccc(Cn2c(C3CCN(C(=O)Cc4cccc(OC)c4)CC3)n[nH]c2=O)cc1	inactive
COc1ccccc1CNCCS(=O)(=O)NCc1ccccc1OC	inactive
CCOc1ccc(N)c(SSc2cc(OCC)ccc2N)c1	inconclusive: 5.62 µM [inhibitor, full curve, poor fit]
CCOc1ccc(C(N)=S)cc1	active: 14.1 µM
CCOc1ccc(-n2c(=O)c3c4c(sc3n(Cc3cc(=O)n5cc(Cl)ccc5n3)c2=O)CCC4)cc1	inconclusive: 28.2 µM [inhibitor, full curve, poor fit]
O=C(CN1C(=O)NC(Cc2c[nH]c3ccccc23)C1=O)Nc1ccc(Br)cc1F (stereo not drawn)	inconclusive: 39.8 µM [inhibitor, partial curve, poor fit] and inconclusive: 89.1 µM [inhibitor, single point]
O=C(NC(NC(=S)Nc1ccccc1C(=O)O)C(Cl)(Cl)Cl)c1cccc([N+](=O)[O-])c1 (stereo not drawn)	inconclusive: 56.2 µM [inhibitor, partial curve, poor fit]
Cc1nn(-c2ccc(C(=O)O)cc2)c(N)c1-c1ccccc1	inactive
COc1cccc2cc(-c3cn4ccccc4n3)c(=O)oc12	inconclusive: 56.2 µM [inhibitor, partial curve, poor fit]
N#Cc1ccc(C23CC4(C2)[C@H](CN(CC2CCCCC2)[C@@H]4c2ccccc2)C3c2ccc(C(F)(F)F)cc2)cc1 (stereo partly drawn)	inconclusive: 56.2 µM [inhibitor, partial curve, poor fit]
O=C(O)c1ccc(-c2ccco2)cc1	inconclusive: 44.7 µM [inhibitor, single point]
COc1ccc(NS(=O)(=O)c2ccc(NC(=O)CCNS(=O)(=O)c3ccc(C)cc3)cc2)cc1	inconclusive: 50.1 µM [inhibitor, partial curve, poor fit]
